Assay results from publication PMC7862700.
The entries are a selection whose mix differs from that of the whole data set. At the low end of the ranking the order means little.

Chains of the proteins cited; added tags and fusions are not shown. Lines headed by an entry give the natural chain unless they say otherwise; changes in a name come on top.
UniProt Q01892: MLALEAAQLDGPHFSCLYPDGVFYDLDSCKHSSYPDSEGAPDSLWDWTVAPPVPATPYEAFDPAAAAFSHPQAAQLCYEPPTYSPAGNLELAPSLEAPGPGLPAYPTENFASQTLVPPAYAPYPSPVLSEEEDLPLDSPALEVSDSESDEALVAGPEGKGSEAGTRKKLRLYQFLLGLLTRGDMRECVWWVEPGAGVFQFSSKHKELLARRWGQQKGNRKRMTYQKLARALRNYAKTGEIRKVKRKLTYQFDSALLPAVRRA
UniProt P41161: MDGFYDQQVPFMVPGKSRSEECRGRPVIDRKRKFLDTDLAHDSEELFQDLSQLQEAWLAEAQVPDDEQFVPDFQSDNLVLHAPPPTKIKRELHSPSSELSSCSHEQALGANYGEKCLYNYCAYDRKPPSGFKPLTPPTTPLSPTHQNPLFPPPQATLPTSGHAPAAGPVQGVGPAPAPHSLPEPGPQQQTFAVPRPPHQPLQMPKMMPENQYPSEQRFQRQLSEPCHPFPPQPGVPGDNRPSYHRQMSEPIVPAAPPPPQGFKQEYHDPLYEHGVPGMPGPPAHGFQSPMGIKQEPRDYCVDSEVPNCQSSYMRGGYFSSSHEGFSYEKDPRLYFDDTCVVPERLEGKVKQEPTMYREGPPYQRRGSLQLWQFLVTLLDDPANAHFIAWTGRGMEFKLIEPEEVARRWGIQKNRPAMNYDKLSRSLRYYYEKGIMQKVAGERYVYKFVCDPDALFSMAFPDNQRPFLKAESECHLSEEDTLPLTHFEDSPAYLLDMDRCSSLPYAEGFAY
UniProt Q99607: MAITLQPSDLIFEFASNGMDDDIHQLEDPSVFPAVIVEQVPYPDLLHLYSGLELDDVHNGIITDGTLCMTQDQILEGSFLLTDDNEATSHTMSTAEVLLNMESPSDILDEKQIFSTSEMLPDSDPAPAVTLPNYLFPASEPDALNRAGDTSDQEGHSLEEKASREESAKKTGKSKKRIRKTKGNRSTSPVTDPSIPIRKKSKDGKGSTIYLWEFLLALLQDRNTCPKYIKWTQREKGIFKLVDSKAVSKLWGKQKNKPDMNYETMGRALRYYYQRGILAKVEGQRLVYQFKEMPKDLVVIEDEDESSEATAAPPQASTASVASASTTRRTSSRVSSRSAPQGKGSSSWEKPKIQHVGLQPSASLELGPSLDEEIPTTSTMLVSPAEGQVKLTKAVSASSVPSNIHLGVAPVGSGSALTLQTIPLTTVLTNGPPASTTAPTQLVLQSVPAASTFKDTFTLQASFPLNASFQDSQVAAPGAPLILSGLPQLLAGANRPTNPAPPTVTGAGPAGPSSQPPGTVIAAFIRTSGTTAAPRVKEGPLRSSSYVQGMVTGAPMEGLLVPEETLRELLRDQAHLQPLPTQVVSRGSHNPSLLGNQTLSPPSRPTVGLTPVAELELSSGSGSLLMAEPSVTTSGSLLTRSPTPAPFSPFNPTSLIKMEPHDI

Key:
Assay in all cases: DAPPL (digital affinity profiling via proximity ligation, sequencing)
Conditions in all cases: 10 mM Tris-HCl pH 7.5, 50 mM NaCl, 1 mM DTT, 4% glycerol, room temperature, 30 min; GST-TFs on glutathione beads, 16-mer random dsDNA library, 0.1% …; high values mean tight binding; double strand, one strand shown; scale: fold enrichment (6-mer frequency, TF over GST control)
FLI1 = target: T1, FLI1 (UniProt Q01543)
T1 sequence: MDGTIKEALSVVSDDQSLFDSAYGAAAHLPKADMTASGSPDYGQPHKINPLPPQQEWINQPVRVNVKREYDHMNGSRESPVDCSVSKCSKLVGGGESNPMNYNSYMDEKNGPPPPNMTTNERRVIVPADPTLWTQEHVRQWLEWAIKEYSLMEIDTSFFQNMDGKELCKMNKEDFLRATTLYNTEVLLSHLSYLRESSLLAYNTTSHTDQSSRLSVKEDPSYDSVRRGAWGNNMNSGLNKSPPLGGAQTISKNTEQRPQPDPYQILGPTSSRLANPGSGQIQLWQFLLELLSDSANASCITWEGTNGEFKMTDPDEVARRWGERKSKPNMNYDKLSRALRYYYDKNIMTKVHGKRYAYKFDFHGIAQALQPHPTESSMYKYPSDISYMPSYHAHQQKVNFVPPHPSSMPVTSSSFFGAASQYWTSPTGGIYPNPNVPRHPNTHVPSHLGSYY

EHF = target: T2, EHF (UniProt Q9NZC4)
T2 sequence: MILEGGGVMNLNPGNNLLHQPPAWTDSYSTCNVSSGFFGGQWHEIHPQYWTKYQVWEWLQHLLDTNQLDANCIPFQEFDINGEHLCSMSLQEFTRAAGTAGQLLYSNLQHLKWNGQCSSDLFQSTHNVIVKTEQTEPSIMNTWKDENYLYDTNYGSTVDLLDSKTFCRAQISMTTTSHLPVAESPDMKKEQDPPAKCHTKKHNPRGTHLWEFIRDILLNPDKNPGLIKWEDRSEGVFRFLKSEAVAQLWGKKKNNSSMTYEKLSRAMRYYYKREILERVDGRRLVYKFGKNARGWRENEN

SPIB = SPIB (UniProt Q01892)
ETV5 = ETV5 (UniProt P41161)
ELF4 = ELF4 (UniProt Q99607)
ETV2 = target: T3, ETV2 (UniProt O00321)
T3 sequence: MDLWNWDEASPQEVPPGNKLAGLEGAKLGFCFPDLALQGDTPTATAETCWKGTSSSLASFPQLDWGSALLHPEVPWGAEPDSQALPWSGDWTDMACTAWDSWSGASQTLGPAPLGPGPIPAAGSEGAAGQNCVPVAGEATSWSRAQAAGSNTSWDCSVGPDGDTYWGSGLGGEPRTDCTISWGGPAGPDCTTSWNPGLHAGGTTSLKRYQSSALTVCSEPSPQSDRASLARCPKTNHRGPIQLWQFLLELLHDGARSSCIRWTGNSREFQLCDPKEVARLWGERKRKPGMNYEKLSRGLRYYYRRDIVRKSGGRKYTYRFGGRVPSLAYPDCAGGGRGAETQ

ETV3L = target: T4, ETV3L (UniProt Q6ZN32)
T4 sequence: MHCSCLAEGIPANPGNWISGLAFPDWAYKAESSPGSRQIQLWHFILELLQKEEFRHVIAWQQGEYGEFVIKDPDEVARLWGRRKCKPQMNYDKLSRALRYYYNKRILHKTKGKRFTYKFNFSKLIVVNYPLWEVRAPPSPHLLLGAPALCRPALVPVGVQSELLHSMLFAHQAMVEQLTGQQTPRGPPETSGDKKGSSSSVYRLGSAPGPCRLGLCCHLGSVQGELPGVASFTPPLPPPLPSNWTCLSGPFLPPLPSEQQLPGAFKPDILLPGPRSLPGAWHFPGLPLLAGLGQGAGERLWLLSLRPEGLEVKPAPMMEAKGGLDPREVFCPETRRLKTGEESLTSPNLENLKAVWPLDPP

Sequence	binding signal (FLI1)	binding signal (EHF)	binding signal (SPIB)	binding signal (ETV5)	binding signal (ELF4)	binding signal (ETV2)	binding signal (ETV3L)
GGGATG	0.881	0.959	0.946	0.888	0.895	0.833	0.906
AGGTGG	0.594	0.653	0.599	0.685	0.61	0.528	0.654
GTAGGG	0.599	0.725	0.702	0.727	0.708	0.652	0.742
AGGCCG	0.463	0.457	0.48	0.457	0.498	0.532	0.459
GGGCCG	0.62	0.643	0.554	0.583	0.654	0.511	0.63
GGCGGT	0.417	0.39	0.439	0.419	0.403	0.385	0.429
GGTTGC	0.935	0.929	1	0.989	0.912	0.867	
TCAGCG	0.807	0.773	0.839	0.821	0.777	0.77	0.785
AGGTTG	0.699	0.812	0.79	0.74	0.794	0.89	0.794
AGGAGC	0.392	0.362	0.358	0.411	0.397	0.329	0.364
AGAGTA	0.76	0.833	0.772	0.805	0.801	0.765	0.763
TCAGAA	0.921	0.925	0.886	0.881	1	0.952	0.875
TGAGCC	0.856	0.84	0.803	0.829	0.843	0.898	0.758
ATGAGT	0.729	0.767	0.601	0.706	0.692	0.775	0.722
GAGCTA	0.904		0.833	0.906	0.917	0.939	0.907
TCGCCA	0.925	0.85	0.953	0.976	0.94	0.904	
GGGCTG	0.876	0.92	0.877	0.911	0.96	0.957	
CGGTAA	0.975		0.927	0.962	0.949	0.855	0.969
GTCGAA	0.642	0.607	0.614	0.654	0.65	0.643	0.613
TGGGGG	0.777	0.71	0.783	0.666	0.684	0.839	0.833
GGGGAA	0.754	0.767	0.737	0.735	0.684	0.761	0.749
CGTGGA	0.49	0.617	0.562	0.554	0.551	0.512	0.561
GTATAG	0.913	0.943	0.937	0.946	0.888	0.889	

Exported comma-delimited: entries from further up.
Sequence,binding signal (FLI1),binding signal (EHF),binding signal (SPIB),binding signal (ETV5),binding signal (ELF4),binding signal (ETV2),binding signal (ETV3L)
ATGAGT,0.729,0.767,0.601,0.706,0.692,0.775,0.722
GAGCTA,0.904,,0.833,0.906,0.917,0.939,0.907
TCGCCA,0.925,0.85,0.953,0.976,0.94,0.904,

(continued)

Sequence	binding signal (FLI1)	binding signal (EHF)	binding signal (SPIB)	binding signal (ETV5)	binding signal (ELF4)	binding signal (ETV2)	binding signal (ETV3L)
GACACC	0.839	0.87	0.864	0.904	0.908	0.813	
CAGGGC	0.784	0.759	0.753	0.768	0.824	0.681	0.784
AGTTCA	0.948	0.961	0.902	0.946	0.899	0.89	
CAACAG	0.975		0.911	0.924	0.938	0.957	0.887
GGAGCG	0.346	0.387	0.372	0.353	0.394	0.362	0.387
GTGCAA	0.913		0.958	0.955	0.982	0.85	0.909
TGACAG	0.993	0.936	0.981	0.881	0.982	0.913	
AGATAC	0.925		0.89	0.877	0.932	0.981	0.987
AAGACA	0.975	0.984	1.02	0.996	0.919	0.937	
GCATAT	0.951	0.892	0.883	0.917	0.933	1.02	0.996
AGCGCA	0.918	0.886	0.909	0.898	0.879	0.875	
GTAGGT	0.864	0.786	0.807	0.81	0.846	0.844	0.773
CAGCAG	0.85	0.852	0.833	0.803	0.892	0.845	0.822
TGGAGC	0.614	0.657	0.546	0.619	0.66	0.603	0.556
GCGGTT	0.786	0.75	0.824	0.833	0.755	0.75	0.74
CGTAGT	0.829	0.852	0.822	0.802	0.88	0.753	0.841
GGGTAC	0.869	0.864	0.922	0.866	0.899	0.74	0.893
GCATTG	0.905	0.797	0.707	0.823	0.778	0.921	0.81
AGCACC	0.904	0.966	0.919	0.88	0.889	0.932	
AGGGCG	0.576	0.551	0.566	0.546	0.569	0.642	0.537
GAGGGG	0.52	0.499	0.54	0.545	0.509	0.6	0.49
GTGCGA	0.89	0.895	0.848	0.917	0.913	0.873	0.829
